# Over roughly 1,900 compounds, “excess over highest single agent (ExcessHSA) synergy score, 6x6 matrix” has its median near -83; the lowest 2% begin near -370. The list shows a part of the results.
# Test system: NCI-H446
# Assay: excess over highest single agent (ExcessHSA) synergy score, 6x6 matrix; higher = less synergy (more negative = stronger synergy)
# Settings: 72 h; CellTiter-Glo viability
row,SMILES,excess over highest single agent
1,COC(=O)Nc1ccc(-c2nc(N3CCOCC3)c3cnn(C4CCN(C(=O)OC)CC4)c3n2)cc1 + Cc1sc2c(c1C)C(c1ccc(Cl)cc1)=N[C@@H](CC(=O)OC(C)(C)C)c1nnc(C)n1-2 [NCGC00250412-19],-352
2,N[C@@H](Cc1ccc(N(CCCl)CCCl)cc1)C(=O)O + Cc1sc2c(c1C)C(c1ccc(Cl)cc1)=N[C@@H](CC(=O)OC(C)(C)C)c1nnc(C)n1-2 [NCGC00250412-19],-150
3,CCC[S+]([O-])c1ccc2[nH]c(NC(=O)OC)nc2c1 (stereo not drawn) + Cc1sc2c(c1C)C(c1ccc(Cl)cc1)=N[C@@H](CC(=O)OC(C)(C)C)c1nnc(C)n1-2 [NCGC00250412-19],-145
4,NC(=O)OCC(COC(N)=O)c1ccccc1 + Cc1sc2c(c1C)C(c1ccc(Cl)cc1)=N[C@@H](CC(=O)OC(C)(C)C)c1nnc(C)n1-2 [NCGC00250412-19],-44.4
5,CN[C@H]1CCc2cc(OC)c(OC)c(OC)c2-c2ccc(OC)c(=O)cc21 + Cc1sc2c(c1C)C(c1ccc(Cl)cc1)=N[C@@H](CC(=O)OC(C)(C)C)c1nnc(C)n1-2 [NCGC00250412-19],-167
6,O=C(CC12CC3CC(CC(C3)C1)C2)Nc1cccc2nc(NCCNCCO)ccc12 + Cc1sc2c(c1C)C(c1ccc(Cl)cc1)=N[C@@H](CC(=O)OC(C)(C)C)c1nnc(C)n1-2 [NCGC00250412-19],-112
7,C[C@H](Cc1cc2c(c(C(N)=O)c1)N(CCCO)CC2)NCCOc1ccccc1OCC(F)(F)F + Cc1sc2c(c1C)C(c1ccc(Cl)cc1)=N[C@@H](CC(=O)OC(C)(C)C)c1nnc(C)n1-2 [NCGC00250412-19],50.9
8,CN(C)CCOc1ccc(-c2nc(-c3ccncc3)c(-c3ccc4c(c3)CC/C4=N\O)[nH]2)cc1 + Cc1sc2c(c1C)C(c1ccc(Cl)cc1)=N[C@@H](CC(=O)OC(C)(C)C)c1nnc(C)n1-2 [NCGC00250412-19],24.2
9,NS(=O)(=O)OC[C@@H]1C[C@@H](n2ccc3c(N[C@H]4CCc5ccccc54)ncnc32)C[C@@H]1O + Cc1sc2c(c1C)C(c1ccc(Cl)cc1)=N[C@@H](CC(=O)OC(C)(C)C)c1nnc(C)n1-2 [NCGC00250412-19],-544
10,CNC(=O)c1ccc(Nc2cc(Nc3ccccc3S(=O)(=O)C(C)C)c3cc[nH]c3n2)nc1 + Cc1sc2c(c1C)C(c1ccc(Cl)cc1)=N[C@@H](CC(=O)OC(C)(C)C)c1nnc(C)n1-2 [NCGC00250412-19],-116
11,Cc1cc(Cl)ccc1OCCCC(=O)NO + Cc1sc2c(c1C)C(c1ccc(Cl)cc1)=N[C@@H](CC(=O)OC(C)(C)C)c1nnc(C)n1-2 [NCGC00250412-19],23.3
12,O=C(c1ccc(/C=C/c2n[nH]c3ccccc23)cc1)N1CCNCC1 + Cc1sc2c(c1C)C(c1ccc(Cl)cc1)=N[C@@H](CC(=O)OC(C)(C)C)c1nnc(C)n1-2 [NCGC00250412-19],-19.2
13,C/C(=C\C(=O)Nc1ccccc1C(=O)O)c1ccc2ccccc2c1 + Cc1sc2c(c1C)C(c1ccc(Cl)cc1)=N[C@@H](CC(=O)OC(C)(C)C)c1nnc(C)n1-2 [NCGC00250412-19],-120
14,CS(=O)(=O)c1ccc(-c2cnc(N)c(C(=O)Nc3ccccc3)n2)cc1 + Cc1sc2c(c1C)C(c1ccc(Cl)cc1)=N[C@@H](CC(=O)OC(C)(C)C)c1nnc(C)n1-2 [NCGC00250412-19],122
15,NS(=O)(=O)c1cc(Cl)c(Cl)c(S(N)(=O)=O)c1 + Cc1sc2c(c1C)C(c1ccc(Cl)cc1)=N[C@@H](CC(=O)OC(C)(C)C)c1nnc(C)n1-2 [NCGC00250412-19],146
16,CCCCCNC(=N)N/N=C/c1c[nH]c2ccc(OC)cc12 + Cc1sc2c(c1C)C(c1ccc(Cl)cc1)=N[C@@H](CC(=O)OC(C)(C)C)c1nnc(C)n1-2 [NCGC00250412-19],-157
17,COc1c(C)c2c(c(O)c1C/C=C(\C)CCC(=O)O)C(=O)OC2 + Cc1sc2c(c1C)C(c1ccc(Cl)cc1)=N[C@@H](CC(=O)OC(C)(C)C)c1nnc(C)n1-2 [NCGC00250412-19],-255
18,O=C(O)C1=CO[C@@H](O[C@@H]2O[C@H](CO)[C@@H](O)[C@H](O)[C@H]2O)[C@@H]2C(CO)=CC[C@H]12 + Cc1sc2c(c1C)C(c1ccc(Cl)cc1)=N[C@@H](CC(=O)OC(C)(C)C)c1nnc(C)n1-2 [NCGC00250412-19],346
19,Cc1ccnc(NS(=O)(=O)c2ccc(NC(=O)Nc3ccc(S(=O)(=O)Nc4nccc(C)n4)cc3)cc2)n1 + Cc1sc2c(c1C)C(c1ccc(Cl)cc1)=N[C@@H](CC(=O)OC(C)(C)C)c1nnc(C)n1-2 [NCGC00250412-19],-31.6

row,SMILES,excess over highest single agent
1,Clc1ccc(C(c2ccc(Cl)cc2)[n+]2ccn(CC(OCc3ccc(Cl)cc3Cl)c3ccc(Cl)cc3Cl)c2)cc1 (stereo not drawn) + Cc1sc2c(c1C)C(c1ccc(Cl)cc1)=N[C@@H](CC(=O)OC(C)(C)C)c1nnc(C)n1-2 [NCGC00250412-19],-191
2,CC(C)(C)c1nc(-c2cccc(NS(=O)(=O)c3c(F)cccc3F)c2F)c(-c2ccnc(N)n2)s1 + Cc1sc2c(c1C)C(c1ccc(Cl)cc1)=N[C@@H](CC(=O)OC(C)(C)C)c1nnc(C)n1-2 [NCGC00250412-19],8.09
3,COc1cccc2c1CCCC2CCCN1CCN(C2CCCCC2)CC1 (stereo not drawn) + Cc1sc2c(c1C)C(c1ccc(Cl)cc1)=N[C@@H](CC(=O)OC(C)(C)C)c1nnc(C)n1-2 [NCGC00250412-19],-180
4,C[C@H]1O[C@@H](n2cc(F)c(=O)[nH]c2=O)[C@H](O)[C@@H]1O + Cc1sc2c(c1C)C(c1ccc(Cl)cc1)=N[C@@H](CC(=O)OC(C)(C)C)c1nnc(C)n1-2 [NCGC00250412-19],-2.28
5,O=C(O)CCCCC(CCSCc1ccccc1)SCc1ccccc1 (stereo not drawn) + Cc1sc2c(c1C)C(c1ccc(Cl)cc1)=N[C@@H](CC(=O)OC(C)(C)C)c1nnc(C)n1-2 [NCGC00250412-19],-98.5
6,C[C@H]([C@H](O)CCC(C)(C)O)[C@H]1CC[C@@]2(O)C3=CC(=O)[C@@H]4C[C@@H](O)[C@@H](O)C[C@]4(C)[C@H]3CC[C@]12C + Cc1sc2c(c1C)C(c1ccc(Cl)cc1)=N[C@@H](CC(=O)OC(C)(C)C)c1nnc(C)n1-2 [NCGC00250412-19],-147
7,O=c1c(-c2ccc(O)cc2)coc2cc(O)ccc12 + Cc1sc2c(c1C)C(c1ccc(Cl)cc1)=N[C@@H](CC(=O)OC(C)(C)C)c1nnc(C)n1-2 [NCGC00250412-19],-75.6
8,COc1cccc(Nc2c(C(N)=O)cnc3c(C)cc(S(=O)(=O)c4cccc(C(=O)N(C)C)c4)cc23)c1 + Cc1sc2c(c1C)C(c1ccc(Cl)cc1)=N[C@@H](CC(=O)OC(C)(C)C)c1nnc(C)n1-2 [NCGC00250412-19],-40.6
9,CC(C(C)N1CC(=O)NC(=O)C1)N1CC(=O)NC(=O)C1 (stereo not drawn) + Cc1sc2c(c1C)C(c1ccc(Cl)cc1)=N[C@@H](CC(=O)OC(C)(C)C)c1nnc(C)n1-2 [NCGC00250412-19],-113
10,N#Cc1ccc(COC[C@H]2O[C@@H](n3c(NCc4ccc(Cl)c(Cl)c4)nc4c(N)ncnc43)[C@H](O)[C@@H]2O)cc1 + Cc1sc2c(c1C)C(c1ccc(Cl)cc1)=N[C@@H](CC(=O)OC(C)(C)C)c1nnc(C)n1-2 [NCGC00250412-19],90.3
11,CN(C)CCN(C)CCc1ccc(Cl)c(Cl)c1 + Cc1sc2c(c1C)C(c1ccc(Cl)cc1)=N[C@@H](CC(=O)OC(C)(C)C)c1nnc(C)n1-2 [NCGC00250412-19],-198
12,C[C@@H](O)[C@H]1C(=O)N2C(C(=O)O)=C(S[C@@H]3CN[C@H](C(=O)N(C)C)C3)[C@H](C)[C@H]12 + Cc1sc2c(c1C)C(c1ccc(Cl)cc1)=N[C@@H](CC(=O)OC(C)(C)C)c1nnc(C)n1-2 [NCGC00250412-19],-145
13,CC(=O)O[C@H]1C[C@@H]2CC[C@@H]3[C@H](CC[C@@]4(C)[C@H]3C[C@H]([N+]3(C)CCCCC3)[C@@H]4OC(C)=O)[C@@]2(C)C[C@@H]1N1CCCCC1 + Cc1sc2c(c1C)C(c1ccc(Cl)cc1)=N[C@@H](CC(=O)OC(C)(C)C)c1nnc(C)n1-2 [NCGC00250412-19],-1.01
14,CN(C)Cc1cccc(N=C(c2ccccc2)c2c(O)[nH]c3cc(C(=O)N(C)C)ccc23)c1 + Cc1sc2c(c1C)C(c1ccc(Cl)cc1)=N[C@@H](CC(=O)OC(C)(C)C)c1nnc(C)n1-2 [NCGC00250412-19],140
15,OC(c1cc(C(F)(F)F)nc2c(C(F)(F)F)cccc12)C1CCCCN1 (stereo not drawn) + Cc1sc2c(c1C)C(c1ccc(Cl)cc1)=N[C@@H](CC(=O)OC(C)(C)C)c1nnc(C)n1-2 [NCGC00250412-19],-37.8
16,CC(C)C[C@@H](N)[C@H](O)C(=O)N[C@H](C(=O)N[C@H](C(=O)N[C@@H](CC(=O)O)C(=O)O)C(C)C)C(C)C + Cc1sc2c(c1C)C(c1ccc(Cl)cc1)=N[C@@H](CC(=O)OC(C)(C)C)c1nnc(C)n1-2 [NCGC00250412-19],306
17,Cc1coc2c1C(=O)C(=O)c1c-2ccc2c1CCCC2(C)C + Cc1sc2c(c1C)C(c1ccc(Cl)cc1)=N[C@@H](CC(=O)OC(C)(C)C)c1nnc(C)n1-2 [NCGC00250412-19],95.2
18,Cc1cn2cc(C(=O)N(C)CCO)cc(N[C@@H]3CCOc4cccc(C)c43)c2n1 + Cc1sc2c(c1C)C(c1ccc(Cl)cc1)=N[C@@H](CC(=O)OC(C)(C)C)c1nnc(C)n1-2 [NCGC00250412-19],64.1
19,COc1ccc(CCN2CCN(CCCc3ccccc3)CC2)cc1OC + Cc1sc2c(c1C)C(c1ccc(Cl)cc1)=N[C@@H](CC(=O)OC(C)(C)C)c1nnc(C)n1-2 [NCGC00250412-19],-120

# 2 consecutive records from above, quoted:
row,SMILES,excess over highest single agent
18,Cc1cn2cc(C(=O)N(C)CCO)cc(N[C@@H]3CCOc4cccc(C)c43)c2n1 + Cc1sc2c(c1C)C(c1ccc(Cl)cc1)=N[C@@H](CC(=O)OC(C)(C)C)c1nnc(C)n1-2 [NCGC00250412-19],64.1
19,COc1ccc(CCN2CCN(CCCc3ccccc3)CC2)cc1OC + Cc1sc2c(c1C)C(c1ccc(Cl)cc1)=N[C@@H](CC(=O)OC(C)(C)C)c1nnc(C)n1-2 [NCGC00250412-19],-120

# From the supplement of paper PMC10077471
